Amino acid sequences for entries named in this document (tags omitted). A change or cut given only in a name is not applied to a line headed by its entry.
UniProt Q8WZA2: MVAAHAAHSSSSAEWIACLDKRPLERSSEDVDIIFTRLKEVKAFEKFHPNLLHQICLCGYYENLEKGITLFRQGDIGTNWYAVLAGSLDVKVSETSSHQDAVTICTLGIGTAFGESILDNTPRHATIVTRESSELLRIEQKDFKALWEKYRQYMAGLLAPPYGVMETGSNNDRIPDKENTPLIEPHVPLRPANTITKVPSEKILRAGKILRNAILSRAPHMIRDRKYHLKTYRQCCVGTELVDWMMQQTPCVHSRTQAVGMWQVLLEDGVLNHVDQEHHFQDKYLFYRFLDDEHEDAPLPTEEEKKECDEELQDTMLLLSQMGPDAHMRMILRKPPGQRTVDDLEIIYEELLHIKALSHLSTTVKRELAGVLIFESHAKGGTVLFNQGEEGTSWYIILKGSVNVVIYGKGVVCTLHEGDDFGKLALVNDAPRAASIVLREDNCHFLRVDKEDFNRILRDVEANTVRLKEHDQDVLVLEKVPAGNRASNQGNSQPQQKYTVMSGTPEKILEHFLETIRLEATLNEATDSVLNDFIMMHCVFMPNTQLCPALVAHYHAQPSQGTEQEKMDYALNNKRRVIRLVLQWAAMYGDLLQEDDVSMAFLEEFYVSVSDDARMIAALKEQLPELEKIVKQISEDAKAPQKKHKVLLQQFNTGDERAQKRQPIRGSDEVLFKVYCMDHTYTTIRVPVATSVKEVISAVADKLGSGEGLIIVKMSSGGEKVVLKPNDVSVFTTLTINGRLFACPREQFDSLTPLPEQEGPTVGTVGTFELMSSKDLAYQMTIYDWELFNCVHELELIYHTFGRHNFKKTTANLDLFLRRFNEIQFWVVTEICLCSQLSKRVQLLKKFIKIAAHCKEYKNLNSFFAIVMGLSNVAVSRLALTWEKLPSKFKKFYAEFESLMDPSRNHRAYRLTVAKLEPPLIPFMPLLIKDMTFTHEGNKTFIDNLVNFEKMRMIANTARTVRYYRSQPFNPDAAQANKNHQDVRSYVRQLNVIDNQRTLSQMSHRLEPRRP

Screen size: about 360,000 compounds; about 290 (0.081%) were called active. The shares of active, inactive and inconclusive entries below differ from those in the screen. The call rests on the fitted dose curve; in most records, active means well fitted activation curve with a large enough effect; inconclusive means small, poorly fitted or top-dose-only effect; inactive means no such curve, though single readings can be large or run the other way. A potency beside an inconclusive call is a rough fit, not a confirmed value.
What follows are molecules tested against Rap guanine nucleotide exchange factor 4 (Homo sapiens) (UniProt Q8WZA2) (assay: qHTS for Agonist of cAMP-regulated guanine nucleotide exchange factor 4 (EPAC2): primary screen). Conditions: biochemical qHTS; Potency: EPAC2 activation unless noted; activation: at 154 µM (top of the series), 100% = 6.5 mM cAMP response unless noted.
Outline: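 Nucleotide exchange monitored as fluorescence drop when BODIPY-GDP leaves Rap1B. Reaction: 100 nM EPAC2, 250 nM RAP1B-BODIPY-GDP, 50 uM GDP, room temperature, kinetic read over 30 min. Activity expressed relative to 6.5 mM cAMP.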
With `Cc1ccc(OCCCCNC2CCCC(C)C2C)c(C)c1` (configuration not stated) the Potency was inconclusive: 35.5 µM [activator, single point]. With `O=c1[nH]c2ccccc2nc1/C=C(\O)c1cccs1` the Potency was inconclusive: 100 µM [activator, partial curve]. With `O=S(=O)(NCc1csc(-c2ccccc2)n1)c1ccc(Cl)s1` the Potency was inconclusive: 126 µM [activator, single point]. In the case of `COc1ccc(/C(C)=N/NC(=O)c2sccc2-n2cccc2)cc1`, the Potency was “inactive”. In the case of `CCN(CC)C(=O)c1sc2nc(Cc3ccccc3)[nH]c(=O)c2c1C`, the Potency was inconclusive: 126 µM [activator, single point]. `COC(=O)c1cccc(NC(=O)/C=C/c2ccc([N+](=O)[O-])cc2)c1` was tested, and the Potency was “inactive”. For `Cc1cc2cc(CNC(=S)Nc3ccc(OC(F)F)cc3)ccc2n1C`, the Potency was “inactive”. With `C=CCn1c(=O)/c(=C/c2ccc(C)o2)s/c1=C(/C#N)C(=O)c1ccccc1` the Potency was active: 100 µM. With `COc1cccc(/C(O)=C/c2nc3ccc(C(=O)NCCc4ccc(Cl)cc4)cc3[nH]c2=O)c1` the Potency was active: 112 µM. For `O=C(CCSc1nc2ccccc2o1)N1CCOCC1`, the Potency was inconclusive: 112 µM [activator, single point]. With `C=CCn1cc(C(=O)NCCCOC)c(=O)c2cc(S(=O)(=O)N(CC)CC)ccc21` the Potency was inconclusive: 112 µM [activator, single point]. In the case of `COc1ccc(C(=O)N/C(=C\c2cn(S(=O)(=O)N(C)C)c3ccccc23)C(=O)N2CCCC2)cc1`, the Potency was “inactive”. `Cc1ccc(NC(=O)CN2C(=O)N/C(=C/c3ccccc3OCc3cccc(C(=O)O)c3)C2=O)cc1` was tested, and the Potency was “inactive”. `COc1ccc(N2C(=O)C3CCCN3C2c2cccc(Br)c2)cc1` (configuration not stated) was tested, and the Potency was inconclusive: 100 µM [activator, partial curve]. For `COc1ccc(Cl)cc1C(=O)Nc1cccc(-c2ccc3nncn3n2)c1`, the Potency was inconclusive: 31.6 µM [activator, partial curve]. With `C/C(=C\C(=S)Nc1ccccc1)Nc1ccc2ccccc2c1` the Potency was “inactive”. With `COc1ccc(C(O)c2nc(-c3ccc(F)cc3OC)cs2)cc1` (configuration not stated) the Potency was inconclusive: 31.6 µM [activator, partial curve]. With `Cc1ccccc1OCCCN1C(=O)C(=O)c2cccc(C)c21` the Potency was inconclusive: 44.7 µM [activator, single point]. For `Cc1csc(NC(=O)c2sc3nc(-c4cccs4)ccc3c2N)n1`, the Potency was inconclusive: 100 µM [activator, partial curve]. With `Cc1cc(C)n(-c2ccc([N+](=O)[O-])cc2)n1` the Potency was “inactive”. In the case of `CCN(C(=O)COC(=O)c1ccc(C=O)cc1)c1c(N)n(Cc2ccccc2)c(=O)[nH]c1=O`, the Potency was “inactive”. For `O=S(=O)([N-]c1nc2ccccc2nc1-[n+]1ccc(-c2ccncc2)cc1)c1ccccc1`, the Potency was inconclusive: 112 µM [activator, single point]. For `Brc1ccc(-c2csc(-c3c[nH]c4ccccc34)n2)cc1`, the Potency was active: 39.8 µM. In the case of `O=C(Nc1sc2c(c1C(=O)O)CCCC2)c1ccc(Cl)cc1`, the Potency was “inactive”. In the case of `Cc1cc(C)c2cc(CN(Cc3nnnn3C3CCCCC3)CC3CCCO3)c(=O)[nH]c2c1` (configuration not stated), the Potency was “inactive”. With `CCC1CCCCN1C(=O)c1cc2cc(Br)ccc2oc1=O` (configuration not stated) the Potency was inconclusive: 112 µM [activator, single point]. For `CC(C)NC(=O)c1sc2nc(-c3cccs3)cc(-c3cccs3)c2c1N`, the Potency was inconclusive: 112 µM [activator, single point]. In the case of `CN(C)c1ccc(/C=C/C(=O)c2c(O)c3ccccc3oc2=O)cc1`, the Potency was “inactive”. For `O=C(COC(=O)C1CC2C=CC1C2)NCc1ccco1` (configuration not stated), the activation was inconclusive: 770% [activator] [at 15.6 µM, 100% = 6.5 mM cAMP response]. In the case of `Cc1nn(-c2nnc(C)c(=O)[nH]2)c(C)c1SCC(=O)Nc1ccc(C(C)C)cc1`, the activation was inconclusive: 160% [activator] [at 15.6 µM, 100% = 6.5 mM cAMP response]. `CCN1CCN(Cc2c(O)ccc3c2O/C(=C\C=C\c2ccccc2OC)C3=O)CC1` was tested, and the Potency was inconclusive: 100 µM [activator, partial curve]. With `COc1ccc(N/N=C(\C#N)C(=N)N2CCCCC2)cc1` the Potency was “inactive”. In the case of `Cc1ccc(F)c(C2=CC(=O)C[C@H](c3ccc(F)cc3)C2)c1`, the activation was inconclusive: 16.1% [activator]. `C=CCSc1nc2ccccc2c(=O)n1C1CCOC(C)(C)C1` (configuration not stated) was tested, and the Potency was “inactive”. With `COc1ccc(S(=O)(=O)N(C)CC(=O)Nc2ccccc2SC)cc1Cl` the Potency was inconclusive: 126 µM [activator, single point]. `CCC(C)c1ccccc1N1CC(C(=O)Nc2ccc(C)c(S(=O)(=O)N3CCOCC3)c2)CC1=O` (configuration not stated) was tested, and the Potency was “inactive”. In the case of `O=C(NCCCNC1CCCCC1)c1ccc(/C=N/O)nc1`, the Potency was inconclusive: 89.1 µM [activator, partial curve, poor fit]. With `Cc1ccc(NC(=O)c2ccccc2)cc1OC(=O)c1ccccc1` the Potency was inconclusive: 112 µM [activator, partial curve]. In the case of `COc1cc(OC)c(OC)cc1CCC(C)NCCC(c1ccccc1)c1ccccc1` (configuration not stated), the Potency was “inactive”. With `O=C(NCC1COc2ccccc2O1)c1ccc(Br)s1` (configuration not stated) the Potency was inconclusive: 112 µM [activator, single point]. For `COCC(=O)Nc1cc(C)cn(Cc2ccc(F)cc2)c1=O`, the Potency was “inactive”. `COc1ccc(C2=C/C(=C\c3cccc(OC(C)=O)c3)C(=O)O2)cc1` was tested, and the Potency was inconclusive: 89.1 µM [activator, partial curve]. `O=C(CC(=O)c1cc(Cl)ccc1O)c1ccccc1` was tested, and the Potency was inconclusive: 89.1 µM [activator, partial curve]. `Fc1ccc(NC(=S)NNc2ncc(C(F)(F)F)cc2Cl)c(F)c1` was tested, and the Potency was “inactive”. With `CN1CCN(S(=O)(=O)c2cccc(C(=O)N(C)C(c3ccccc3)c3ccccc3)c2)CC1` the Potency was “inactive”. With `CCN1CCc2c(sc(NC(=O)c3ccc(S(=O)(=O)N(C)c4ccccc4)cc3)c2C(=O)NC)C1` the Potency was active: 100 µM. For `O=C(NCc1ccccc1Br)c1cccc2c1C(=O)c1ccc(N3CCC(Cc4ccccc4)CC3)cc1S2(=O)=O`, the Potency was inconclusive: 56.2 µM [activator, partial curve].
Further: nearly all actives have a fitted effect of over 50% in size.
Potency means the concentration at half of the fitted maximal effect.
